Measured values reported in US10035791B2, “Bicyclic compound and pharmaceutical composition thereof for treating stroke and use thereof” (China Medical University, priority 2016, dated 2018).
For at least one compound, name, drawing or mass did not settle the structure.

Tested on: primary cortical cultures (PCCs)
Assay: Lactate dehydrogenase (LDH) release rate analysis, H2O2-treated PCCs
Format: cell-based, C57BL/6 mice
Conditions: compound 100 μM, 10^-4 mol/L H2O2, 24 hours, FIG. 1F
Procedure: H2O2 can cause an oxidative damage to cells and a destruction of the cell membrane, and consequently the LDH is released into medium. For that reason, the lower rate of the LDH released into the culture medium is represented the fewer damaged cells and better cell protection effect of sample.
Test cells are primary cortical cultures (PCCs) in this example. The PCCs are prepared from cerebral cortexes of gestation day 17 embryos from C57BL/6 mice as described previously (Cell Death Differ 2008; 15: 143-151). […]
The PCCs are seeded in a 24-well plate and are allowed to stand for 20 minutes. […] After incubation, the culture medium is collected and washed twice with phosphate buffered saline (PBS), and then are analyzed the LDH activity in the culture medium by using LDH Cytotoxicity Detection Kit (TaKaRa Bio Laboratories, Japan) to calculate the percentage cytotoxicity, which is represented the situation of cells damage, of the PCCs. The lower percentage cytotoxicity presents the lower LDH activity detected and less severe of cells damages, which indicates the better cell protection effect of the sample. The LDH activity is measured by a colorimetry. After a reaction between enzyme and particular substrate, an absorbance of the reaction solution and the LDH activity is linearly correlated. […]

Row | SMILES | LDH release rate of the PCCs treated with H2O2
1 | COC(=O)C1=CO[C@@H](OC(=O)[C@@H](N)Cc2ccccc2)[C@@H]2C(COC(=O)[C@@H](N)CC(N)=O)=CC[C@H]12 [Compound 5] | lower LDH release rate
2 | COC(=O)C1=CO[C@@H](OC(=O)[C@@H](N)Cc2ccccc2)[C@@H]2C(CO)=CC[C@H]12 [Compound 16] | lower LDH release rate
